In paper PMC7819943, “Rice protein-binding microarrays: a tool to detect cis-acting elements near promoter regions in rice” one finds binding signal data, which are given here for 42 sequences.

By UniProt entry, the sequences of proteins in these tests, tags left out.
UniProt Q0JBA9, entry or part of it: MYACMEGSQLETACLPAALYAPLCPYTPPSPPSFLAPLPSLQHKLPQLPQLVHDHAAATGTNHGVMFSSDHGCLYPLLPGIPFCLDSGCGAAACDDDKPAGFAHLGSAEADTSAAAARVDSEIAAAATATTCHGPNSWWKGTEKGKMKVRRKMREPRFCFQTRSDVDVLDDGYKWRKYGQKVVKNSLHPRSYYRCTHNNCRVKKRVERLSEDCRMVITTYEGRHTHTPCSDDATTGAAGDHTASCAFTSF

This is one part of the list.

In the assay the target is OsWRKY34 (Oryza sativa, UniProt Q0JBA9 1-250). The experiment in a line: protein-binding microarray (RPBM); PBS, 2% BSA, 51.3 ng/ul salmon testes DNA, 50 uM zinc acetate, 200 nM TF, 25 C, 1 h; high values mean tight binding. The note with it: protein: recombinant; tags: N-terminal polyhistidine and DsRed monomer fusion (pET32a); label: CyDye5-dUTP incorporated in the synthesized complementary strand; 3' TTTTT single-stranded linker to array surface; dsDNA, one strand shown. In short, it runs like this:
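Binding signal here means per-feature fluorescence intensity in arbitrary units. The values were read on an Axon 4000B scanner after a custom Agilent array, double-stranded by primer extension with Cy5-dUTP, was incubated with 200 nM protein at 25 °C for 1 h in PBS with 2% BSA, salmon testes DNA and 50 µM zinc acetate, then washed. The proteins were transcription factors with an N-terminal polyhistidine tag and DsRed, expressed in E. coli BL21-CodonPlus and purified on Ni–NTA.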
As to “ACTAATCCCTGACTTCGATTCGATCGTTCTGAGATACAGACGGAGTCACCTAGTGCAG”, the binding signal is 11200 fluorescence intensity (a.u.).
The same measure for “GGTGCCGGGTAATGATTGTTTTGTGGGCGTGACGGGTGATCGGAGTCACCTAGTGCAG”: 8710 fluorescence intensity (a.u.).
As to “TACAGTTACTGATTCCATTTTTGGTGGTCAGCTGTCTTCTCGGAGTCACCTAGTGCAG”, the binding signal is 8710 fluorescence intensity (a.u.).
The same measure for “CGCCCCTTGATTCGCCTCGTTTTTTCTTTTCCCTTTTTTTCGGAGTCACCTAGTGCAG”: 9920 fluorescence intensity (a.u.).
Consider “TCCCACATAGTTTTTTTAATTCTAATGCCTCGTTGCTGCCCGGAGTCACCTAGTGCAG”, for which the binding signal is 9550 fluorescence intensity (a.u.).
As to “GCCGTCCCTGCCATTCGCAGGCTTCTCCCCATTGCCTCACCGGAGTCACCTAGTGCAG”, the binding signal was 10200 fluorescence intensity (a.u.).
The same measure for “TCCTCTTTTTGCTGGCTTTCTGTTGACTGTTATTTTATTTCGGAGTCACCTAGTGCAG”: 17100 fluorescence intensity (a.u.).
The same measure for “CGAACTCCACTGTGGATTGGCTTTGATCATGTTCTCATACCGGAGTCACCTAGTGCAG”: 8110 fluorescence intensity (a.u.).
For “CCGTCGTGCTCGTGCCAAGCCAACTCCTCGTCTTCGGCTCCGGAGTCACCTAGTGCAG”, the binding signal was 8300 fluorescence intensity (a.u.).
With “ACATATATAGCGCCCTCACTTTCAAAAGGCCGGCGTTTCTCGGAGTCACCTAGTGCAG”, the binding signal is 8080 fluorescence intensity (a.u.).
The same measure for “AAGCTATAGCTGTCTCTTTCCTTGCATCTCCTCTCCTCTTCGGAGTCACCTAGTGCAG”: 8210 fluorescence intensity (a.u.); for “GTATCCTTGGCGCCGTTAAAACCTCTAGTACCTCTCTGTCCGGAGTCACCTAGTGCAG”: 8260 fluorescence intensity (a.u.); for “ATGTAGATGTGGTCATGTGGGTGCTATCTGTGTGGGTGATCGGAGTCACCTAGTGCAG”: 9360 fluorescence intensity (a.u.).
The same measure for “ATCCCTTTCATCTCTCATCTACCTCGCCATGGTCGCACACCGGAGTCACCTAGTGCAG”: 9140 fluorescence intensity (a.u.).
The same measure for “GTTCAAACTGATGATCCCGTTTCATATGATTCATGACATGCGGAGTCACCTAGTGCAG”: 8290 fluorescence intensity (a.u.).
As for “ATTTATAGAGGTTGGGTGTGCATGTGTGGTGAGCATATTTCGGAGTCACCTAGTGCAG”, the binding signal was 8820 fluorescence intensity (a.u.).
Take “TTGACCACCTCCAGCGCCGTGCACACCTCCACCTGCGCGTCGGAGTCACCTAGTGCAG”: the binding signal is 8750 fluorescence intensity (a.u.).
As to “TATGTCGACCGTATGCGTATACGTATACGTGTATTCCTCTCGGAGTCACCTAGTGCAG”, the binding signal is 8030 fluorescence intensity (a.u.).
Under “TTCAATCCTTGTGTCAGACATCCCATCATGTTCACAACTTCGGAGTCACCTAGTGCAG” stands 9190 fluorescence intensity (a.u.); under “CAAAGAGATAAGAATTGGGCGTACACGTGGGCGGGGCAGACGGAGTCACCTAGTGCAG”, 8180 fluorescence intensity (a.u.); under “TTACACCAATCTGTCCCATTCACTTGTAGACTTGCTTTGCCGGAGTCACCTAGTGCAG”, 8260 fluorescence intensity (a.u.).
The same measure for “ACACATGCCCAGATAGTTTTCTTTGTCATCTCATTCTGCACGGAGTCACCTAGTGCAG”: 9360 fluorescence intensity (a.u.); for “CCTTTGTCTCCAGCCTCCCTCCTACTTCCCTAACGCTGAACGGAGTCACCTAGTGCAG”: 8270 fluorescence intensity (a.u.); for “CCATTCCCTTCTCGTCAGGTCACGCGTCCGAAACCGACCACGGAGTCACCTAGTGCAG”: 8060 fluorescence intensity (a.u.).
For the sequence “ACCAACTGCCACCGCCGCCGTCGCCGACTGCTCCCATCCTCGGAGTCACCTAGTGCAG”, the binding signal is 9010 fluorescence intensity (a.u.).
Under “GCTATATTTTTTTTATAAACTTGATCAAATCCAAAGTAGTCGGAGTCACCTAGTGCAG” stands 9560 fluorescence intensity (a.u.).
The same measure for “ATCTGAATGATCTGACCTTAGTTTCTGCTAGTCCTGAGCTCGGAGTCACCTAGTGCAG”: 11200 fluorescence intensity (a.u.); for “ACGGTCAGATTCCTCACCGAATCCGCACTATCCGCCACTACGGAGTCACCTAGTGCAG”: 9080 fluorescence intensity (a.u.).
In the case of “CCCATACATATTTTACATACAGTCCTTTAATTAATTTATTCGGAGTCACCTAGTGCAG”, the binding signal is 8560 fluorescence intensity (a.u.).
Under “TGCTGTGTTTGGTCATATATAATATACTACCCCTACCCTACGGAGTCACCTAGTGCAG” stands 9490 fluorescence intensity (a.u.); under “ATCTGCTTGTTTTCTTGTACAGTTTGTTCTGTATGTGAGCCGGAGTCACCTAGTGCAG”, 13000 fluorescence intensity (a.u.); under “ACATCGTTCCAATTTCAACCAGACTTTTATTTTTGACGTGCGGAGTCACCTAGTGCAG”, 8460 fluorescence intensity (a.u.).
The same measure for “AACTTTTGCTTCCGTTTTAATAGATGCGACTATATTTCACCGGAGTCACCTAGTGCAG”: 8740 fluorescence intensity (a.u.).
Under “TAGTATTTCTATTTGGACTCTAAACTCATCTTTCAATATTCGGAGTCACCTAGTGCAG” stands 8500 fluorescence intensity (a.u.).
In the case of “AATTCTTTTGTCGTATTATCCTATCTACTTCCACTTATAACGGAGTCACCTAGTGCAG”, the binding signal is 8560 fluorescence intensity (a.u.).
The same measure for “TCTTGCGATGTCCCCACCTGTCAGTCTCCGCTCGCTCTCCCGGAGTCACCTAGTGCAG”: 9920 fluorescence intensity (a.u.).
“CAGATGGCTTTTTAGTTTTTACACCGTGTCTGATACTAAACGGAGTCACCTAGTGCAG”: the binding signal was 8040 fluorescence intensity (a.u.).
The same measure for “CCTCCGCCTCGCGCCGCCACCTCCGCCTCGCGCCGTTGTCCGGAGTCACCTAGTGCAG”: 11000 fluorescence intensity (a.u.); for “GCGCGCCCCATCATCTAGTTATGCTAATTACGCGCGTCTTCGGAGTCACCTAGTGCAG”: 13500 fluorescence intensity (a.u.).
With “TTTATCTTTTCGATGTGTGTTTATAGTTGGATTACAGTATCGGAGTCACCTAGTGCAG”, the binding signal is 8110 fluorescence intensity (a.u.).
Consider “TGCTTTAAGCCTATATTTAATATTTCATACATGTGTTCAACGGAGTCACCTAGTGCAG”, for which the binding signal is 8220 fluorescence intensity (a.u.).
“TGCTGCTCTCGCGCGCTGTGCGGTTGTCACACACACTTTTCGGAGTCACCTAGTGCAG”: the binding signal was 10300 fluorescence intensity (a.u.).
